“And” between values parts separate entries of the source, which are not always exact repeats. Identical values can stand only once. Screen size: about 580,000 compounds; about 6,100 (1.1%) were called active. Inconclusive results, whose numbers are uncertain, are shown with a selection of clear calls. Calls come from the whole dose curve; as a rule, active = well fitted inhibition curve with a large enough effect; inconclusive = small, poorly fitted or top-dose-only effect, or another doubt; inactive = no such curve, though single readings can be large or run the other way. A potency beside an inconclusive call is a rough fit, not a confirmed value.
Molecular target: Polyunsaturated fatty acid lipoxygenase ALOX12 (Homo sapiens) (UniProt P18054)
Experiment: Primary qHTS assay for inhibitors of human arachidonate 12S-lipoxygenase (ALOX12): Round 2
Settings: purified 12hLO, xylenol orange hydroperoxide absorbance; activity change, negative = inhibition: at 108 µM (top of the series) unless noted
Procedure, shortened: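 Hydroperoxide product was detected by ferrous iron/xylenol orange as the 573 to 405 nm absorbance ratio. Arachidonic acid at 40 uM (final) was turned over for 30 min at room temperature by 150 nM human 12hLO, pH 7.0 Hepes buffer, after 15 min compound preincubation.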
% is set by controls: 0 for no effect and ±100 for the full control effect; potency is the fitted concentration of half-maximal effect.

Chains of the proteins cited; added tags and fusions are not shown.
UniProt P18054, whole entry, looked up: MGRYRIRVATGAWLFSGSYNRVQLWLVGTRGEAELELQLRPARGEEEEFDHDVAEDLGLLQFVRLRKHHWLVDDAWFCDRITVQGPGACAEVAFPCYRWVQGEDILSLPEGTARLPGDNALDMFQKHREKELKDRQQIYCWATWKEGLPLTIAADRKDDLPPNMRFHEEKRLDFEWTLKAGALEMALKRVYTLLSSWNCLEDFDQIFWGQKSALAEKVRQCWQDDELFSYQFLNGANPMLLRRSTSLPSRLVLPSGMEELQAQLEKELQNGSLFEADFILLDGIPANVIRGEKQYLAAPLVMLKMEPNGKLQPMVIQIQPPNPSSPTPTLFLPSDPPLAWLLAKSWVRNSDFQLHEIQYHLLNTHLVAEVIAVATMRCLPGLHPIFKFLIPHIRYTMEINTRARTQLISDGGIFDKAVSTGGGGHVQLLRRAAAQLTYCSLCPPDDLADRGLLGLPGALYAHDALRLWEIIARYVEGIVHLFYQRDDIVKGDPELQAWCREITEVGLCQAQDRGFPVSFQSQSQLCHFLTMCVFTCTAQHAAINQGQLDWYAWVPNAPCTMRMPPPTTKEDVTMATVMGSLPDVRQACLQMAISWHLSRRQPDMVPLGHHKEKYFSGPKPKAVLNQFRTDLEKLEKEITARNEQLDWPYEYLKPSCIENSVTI

Row | Compound | Potency | activity change, negative = inhibition
1 | COc1cc(C(=O)OCC(=O)NCC2CCCO2)cc(OC)c1OC (stereo not drawn) | inactive | –
2 | O=Cc1ccc(Oc2ccc([N+](=O)[O-])cc2C(F)(F)F)cc1 | inconclusive: 63.1 µM [inhibitor, partial curve, poor fit] | –
3 | O=[N+]([O-])c1ccc(-c2c[nH]c(=S)[nH]2)cc1 | inconclusive: 39.8 µM [inhibitor, partial curve] | –
4 | S=c1[nH]nc(-c2ccccn2)n1/N=C/c1ccc(Cl)cc1 | active: 28.2 µM | –
5 | Cc1ccc(Cl)cc1NC(=O)Cn1nc(C(=O)O)c2ccccc2c1=O | inconclusive: 50.1 µM [inhibitor, partial curve, poor fit] | –
6 | CCOC(=O)c1ccc(NC(=O)C2CC(=O)Nc3nc(C)nn32)cc1 (stereo not drawn) | inconclusive: 31.6 µM [inhibitor, partial curve, poor fit] | –
7 | CC(C(=O)O)N1CCCCC1 (stereo not drawn) | inconclusive: 112 µM [inhibitor, single point] | –
8 | COc1ccc(/C=C2\Oc3cc(OS(=O)(=O)c4ccc(C)cc4)ccc3C2=O)cc1 | inconclusive: 100 µM [inhibitor, partial curve, poor fit] | –
9 | O=C(Nc1cccc(C(F)(F)F)c1)C1Cc2c(-c3ccc(Cl)cc3)ccnc2O1 (stereo not drawn) | inconclusive: 12.6 µM [inhibitor, partial curve, poor fit] | –
10 | COc1ccc(OCC(=O)OCCN2C(=O)c3ccccc3C2=O)cc1 | inconclusive: 79.4 µM [inhibitor, single point] | –
11 | CC(=O)NC(CC(=O)Oc1ccc(C)cc1Br)c1ccccc1 (stereo not drawn) | inconclusive: 44.7 µM [inhibitor, partial curve, poor fit] | –
12 | C/C(=N\Nc1ccc(Cl)cc1)c1ccncc1 | inconclusive: 15.8 µM [inhibitor, partial curve, poor fit] | –
13 | O=C(NC1CCN(c2cc(-c3ccccc3)[nH]n2)CC1)c1cnccn1 | inactive | –
14 | CCN(Cc1ccccc1)S(=O)(=O)c1ccc(OC)cc1 | inconclusive: 158 µM [inhibitor, partial curve, poor fit] | –
15 | Cc1nn(-c2ccccc2)c(Cl)c1/C=N/Nc1ccc(S(=O)(=O)Nc2ccccc2C(=O)O)cc1[N+](=O)[O-] | inconclusive: 3.98 µM [inhibitor, full curve, poor fit] | –
16 | Cc1ccc(C(=O)N2CCC3(CC2)CC(=O)c2ccccc2O3)cc1 | inconclusive: 28.2 µM [inhibitor, full curve, poor fit] | –
17 | Cc1ccc(-c2nc3cc(Cl)ccc3o2)cc1 | inactive | –
18 | CC(=O)C1=CCC(c2ccc(Cl)cc2)N(S(=O)(=O)c2ccc(C)cc2)C1 (stereo not drawn) | inconclusive: 56.2 µM [inhibitor, partial curve, poor fit] and inconclusive: 31.6 µM [inhibitor, partial curve, poor fit] | –
19 | Cc1nc2oc(C(=O)c3ccccc3)c(N)c2c2c1COC(C)(C)C2 | inconclusive: 6.31 µM [inhibitor, partial curve, poor fit] | –
20 | COc1ccc(NC(=O)C[C@H]2C(=O)N(CCc3ccccc3)C[C@@H]2c2ccc(OC)cc2)cc1 | inconclusive: 112 µM [inhibitor, single point] | –
21 | O=C(Cn1c(=O)n(Cc2ccco2)c(=O)c2sc3ccccc3c21)Nc1ccccc1C(F)(F)F | inconclusive: 126 µM [inhibitor, partial curve, poor fit] | –
22 | C=CCNc1nc(C(=O)OCC(=O)N(C)Cc2ccccc2)cs1 | inconclusive: 12.6 µM [inhibitor, full curve] | –
23 | FC(F)(F)c1ccc(Cl)c(N/N=C/c2cccc(Br)c2)c1 | inconclusive: 50.1 µM [inhibitor, partial curve, poor fit] | –

Row | Compound | Potency | activity change, negative = inhibition
24 | O=C(Cc1ccc(Br)cc1)NC1CCN(Cc2ccccc2)CC1 | inconclusive: 35.5 µM [inhibitor, partial curve, poor fit] | –
25 | O=C(NCCCN1CCOCC1)c1sc2cc(Cl)ccc2c1Cl | inactive | –
26 | NS(=O)(=O)c1ccc(CNC(=S)NC(=O)c2ccco2)cc1 | inconclusive: 89.1 µM [inhibitor, partial curve, poor fit] | –
27 | O=C(NCC(c1cccs1)N1CCOCC1)c1ccc([N+](=O)[O-])cc1 (stereo not drawn) | inactive | –
28 | Cc1ccc(-n2nc(C)c3c(C)c(CCC(=O)NCc4ccccc4Cl)c(C)nc32)cc1 | – | inconclusive: -30.9% [inhibitor]
29 | COc1ccc(Sc2nc3ccccc3n3c(C(F)(F)F)nnc23)cc1 | inconclusive: 100 µM [inhibitor, single point] | –
30 | CCc1ccc(NC(=O)C2CCN(C(=O)[C@@H]3Cc4ccccc4CN3)CC2)cc1 | inactive | –
31 | COc1ccccc1N1CCN(/N=C/c2ccc([N+](=O)[O-])cc2)CC1 | inactive | –
32 | CNC(=O)COC(=O)/C=C/c1ccco1 | inactive | –
33 | CCn1cc(S(=O)(=O)N2CCCCCCNC(=O)[C@@H]3CCC[C@@H]32)cn1 | inactive | –
34 | COc1ccc(C2=C(C(C)=O)Sc3nnc(-c4ccccc4)n3N2C(C)=O)cc1 | inactive | –
35 | Cc1n[nH]c(=S)n(/N=C/c2cccs2)c1=O | inconclusive: 31.6 µM [inhibitor, partial curve, poor fit] | –
36 | CCCCC[C@@H](C)N1C[C@@H](COCc2ccccc2)Oc2cc(N3CC[C@H](O)C3)ccc2S1(=O)=O | inconclusive: 44.7 µM [inhibitor, partial curve, poor fit] | –
37 | COc1cc(NC(=O)c2cc3cc4cc(OC)ccc4nc3o2)cc(OC)c1 | inactive | –
38 | CO/C(N)=C(\C#N)N=Cc1ccccc1Cl | inconclusive: 50.1 µM [inhibitor, partial curve, poor fit] | –
39 | CC1(C)CNC(=O)c2sc(N3CCOCC3)nc2C1 | inactive | –
40 | COc1cccc(-c2cc(C(=O)Nc3cc(C)on3)no2)c1 | inconclusive: 50.1 µM [inhibitor, partial curve, poor fit] | –
41 | COc1ccc(NC(=S)Nc2ccc(F)cc2)cc1 | inactive | –
42 | COCCCn1c(=O)/c(=C\c2ccccc2OC(F)F)s/c1=C(/C#N)C(N)=O | inactive | –
43 | CC(C)C[C@H](NC(=O)c1nc[nH]c1C(=O)NCC(=O)OC(C)(C)C)C(=O)OCc1ccccc1 | inactive | –
44 | CC(CC(=O)Nc1ccc(O)cc1)(C(=O)O)c1ccccc1 (stereo not drawn) | inconclusive: 44.7 µM [inhibitor, partial curve, poor fit] | –
45 | CC1=Nc2cc(C(=O)NCc3ccco3)ccc2Sc2ccc(C)cc21 | inactive | –
46 | Cc1cc(C)n2c(SCC(=O)NC3CCCCC3)nnc2n1 | inactive | –

Row | Compound | Potency | activity change, negative = inhibition
47 | Cc1[nH]n(C(N)=S)c(=O)c1C(c1ccccc1)C(C#N)C#N (stereo not drawn) | inconclusive: 50.1 µM [inhibitor, single point] | –
48 | COc1cc(Cl)c(C)cc1NC(=O)c1cc(=O)n2c(nc3ccccc32)s1 | active: 44.7 µM | –
49 | COc1cc(-c2cc(-c3ccc(F)cc3)nc(N)c2C#N)ccc1O | inconclusive: 44.7 µM [inhibitor, partial curve, poor fit] | –
50 | Cc1onc(-c2ccccc2)c1-c1nnc(CN2CCN(CC(=O)N3CCCCCC3)CC2)o1 | inconclusive: 5.62 µM [inhibitor, full curve, poor fit] | –
51 | CC(=O)NCCc1nc2ccccc2n1CCOc1ccccc1C | inactive | –
52 | Cc1cc(C(=O)N2CCOC[C@H](Oc3cnccn3)C2)c(C(F)(F)F)o1 | inactive | –
53 | CCOc1ccc(-c2[nH]ncc2Oc2ccccc2OC)c(O)c1 | inconclusive: 50.1 µM [inhibitor, partial curve, poor fit] | –
54 | COc1ccc(N(C(C)C(=O)Nc2ccc(S(=O)(=O)N3CCOCC3)cc2)S(C)(=O)=O)cc1 (stereo not drawn) | inactive | –
55 | O=C(OCc1ccc(Br)cc1)c1ccc(O)cc1 | inconclusive: 50.1 µM [inhibitor, partial curve, poor fit] | –
56 | CCOc1ccc(NC(=O)C(Cc2ccccc2OC)c2nn[nH]n2)cc1 (stereo not drawn) | inconclusive: 0.282 µM [inhibitor, full curve, poor fit] | –
57 | O=C(C1CC1)N1CCCN(Cc2ccc3c(c2)OCO3)c2ccccc21 | inconclusive: 20 µM [inhibitor, full curve] | –
58 | O=C(C1CCOCC1)N1CCC(Oc2cnc3c(ccn3-c3cncnc3)c2)CC1 | inactive | –
59 | O=C(NC[C@H]1O[C@H](Cc2cc(COc3ccccc3)on2)CC[C@@H]1O)Nc1cccc(F)c1 | inactive | –
60 | Cc1ccc(CNC(=O)CCSCc2ccccc2C)cc1 | inconclusive: 100 µM [inhibitor, partial curve, poor fit] | –
61 | CC1(C)Cc2c(-c3ccccc3)c(-c3ccc(Cl)cc3)c(CC(=O)O)n2C1 | inconclusive: 5.44 µM [inhibitor, full curve] | –
62 | COc1ccc(C2CC(=O)Oc3c(C(CCN4CCCCC4)c4ccc(N(C)C)cc4)c(OC)cc(OC)c32)cc1 (stereo not drawn) | inactive | –
63 | Cc1ccc(S(=O)(=O)Oc2ccc3c(C(F)(F)F)cc(=O)oc3c2)c(C)c1 | inconclusive: 100 µM [inhibitor, single point] | –
64 | CCn1c(SCc2nc(-c3ccc(Cl)cc3)no2)nnc1-c1ccco1 | inconclusive: 100 µM [inhibitor, partial curve, poor fit] | –
65 | CC(Sc1nnc(COc2ccc3c(c2)CCCC3)n1C)C(=O)Nc1ccc2c(c1)OCO2 (stereo not drawn) | inactive | –
66 | C#CC[N+](C)(C)CC#Cc1ccc(Cl)cc1 | inactive | –
67 | O=P(OC1CCCCC1)(OC1CCCCC1)C(O)c1ccc(Cl)cc1Cl (stereo not drawn) | inconclusive: 79.4 µM [inhibitor, single point] | –
68 | NC(=O)c1ccc(N2CCN(c3ncc(C(F)(F)F)cc3Cl)CC2)cc1 | inactive | –
